Reference: publication PMC9299520 (Nature structural & molecular biology, 2022)

Chains of the proteins cited; added tags and fusions are not shown.
UniProt P47898, whole entry: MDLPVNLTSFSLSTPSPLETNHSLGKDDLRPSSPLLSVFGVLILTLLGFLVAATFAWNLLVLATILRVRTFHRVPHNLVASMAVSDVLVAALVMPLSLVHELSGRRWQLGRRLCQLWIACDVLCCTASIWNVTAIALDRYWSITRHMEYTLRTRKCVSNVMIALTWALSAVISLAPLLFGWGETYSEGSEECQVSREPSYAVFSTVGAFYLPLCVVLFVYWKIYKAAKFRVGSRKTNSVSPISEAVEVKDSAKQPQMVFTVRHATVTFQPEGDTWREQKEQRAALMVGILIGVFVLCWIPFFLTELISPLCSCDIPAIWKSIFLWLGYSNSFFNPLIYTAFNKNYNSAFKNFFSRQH

Target: 5-HT5AR (Homo sapiens, UniProt P47898)
Experiment: BRET2 Gi1-activation assay, WT 5-HT5AR
Format: cell-based
Conditions: normalized to % of 5-HT

CCN(CC)C(=O)N[C@H]1C=C2c3cccc4[nH]cc(c34)C[C@H]2N(C)C1 [lisuride]
agonist type for Gi signaling: partial agonist
